PubChem BioAssay AID1259275 | Sanger Institute – 2017
Shown is one part, drawn at random, of 794 reagents. Over the whole deposit, 13 (1.6%) are marked active. 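Calls mark knock-downs lethal by themselves, not drug synergy; drugs went in a day after transfection, with DMSO as vehicle.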 No viability above 1 is reported: the scale is capped. Not all columns of the deposit are shown. The record does not give: the amount of reagent, the time to read-out.

Purpose: 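Kinome and custom colorectal gene library screened for lethal knock-downs and drug partners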 (primary screen)
Cell system: COLO320HSR human colorectal cancer cells
Reagents: siRNA pool against human genes
Conditions: anchor drug added one day after transfection: BYL719 at 1 µM, cetuximab at 5 µg/ml or trametinib at 10 nM; DMSO as vehicle arm
Detection: 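Replicate-mean viability versus non-targeting pool control, robust z-score without drug, and per-drug synergy scores for BYL719 at 1 µM, cetuximab at 5 µg/ml and trametinib at 10 nM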
Direction: robust z-score, siRNA alone: higher = more viable cells; strongly negative means essential; viability, knock-down alone (DMSO): higher = more viable cells
Call rule: 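a gene is called essential when its robust z-score without drug falls below -3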
Calls: active = essential (siRNA alone); inactive = no change (siRNA alone)

The first 5 records as a preview:
gene | robust z-score, siRNA alone | viability, knock-down alone (DMSO) (fraction of control) | call
SMG1 | 0.206 | 0.953 | inactive
AK4 | 0.709 | 0.998 | inactive
PIK3R2 | 0.726 | 1 | inactive
MOK | -0.124 | 0.923 | inactive
FRK | -0.5 | 0.889 | inactive

The listing, from the first entry:
gene | robust z-score, siRNA alone | viability, knock-down alone (DMSO) (fraction of control) | call
SMG1 | 0.206 | 0.953 | inactive
AK4 | 0.709 | 0.998 | inactive
PIK3R2 | 0.726 | 1 | inactive
MOK | -0.124 | 0.923 | inactive
FRK | -0.5 | 0.889 | inactive
DCLK2 | -0.843 | 0.858 | inactive
MAPK12 | 0.726 | 1 | inactive
CKS1B | 0.429 | 0.973 | inactive
CHD9 | 0.422 | 0.973 | inactive
TNNI3K | 0.726 | 1 | inactive
SYNCRIP | -0.999 | 0.844 | inactive
STK39 | -2 | 0.754 | inactive
PRKAA2 | 0.726 | 1 | inactive
CDKL5 | 0.726 | 1 | inactive
NRAS | 0.527 | 0.982 | inactive
EPHB3 | -0.47 | 0.892 | inactive
NEK11 | -0.4 | 0.898 | inactive
CSNK1E | 0.584 | 0.987 | inactive
PRKCZ | -0.626 | 0.878 | inactive
CDK10 | -1.23 | 0.824 | inactive
OBSCN | 0.726 | 1 | inactive
RPS6KA1 | -1.87 | 0.766 | inactive
EPHA1 | 0.726 | 1 | inactive
TEK | -0.3 | 0.907 | inactive
CDK3 | -0.195 | 0.917 | inactive
PIM2 | 0.726 | 1 | inactive
PIK3C2B | -0.0492 | 0.93 | inactive
PRKX | 0.726 | 1 | inactive
EPHB4 | 0.361 | 0.967 | inactive
NTN4 | 0.726 | 1 | inactive
CEP290 | 0.726 | 1 | inactive
ACVR2A | 0.726 | 1 | inactive
GRK1 | 0.726 | 1 | inactive
TBCK | 0.726 | 1 | inactive
FBXW7 | 0.726 | 1 | inactive
MYLK4 | 0.726 | 1 | inactive
MAPK11 | 0.666 | 0.995 | inactive
RAD21 | -1.16 | 0.83 | inactive
TCF7L2 | 0.468 | 0.977 | inactive
DCLK3 | 0.55 | 0.984 | inactive
SPHK2 | 0.726 | 1 | inactive
STK32A | -0.19 | 0.917 | inactive
AURKB | -0.889 | 0.854 | inactive
PKMYT1 | -0.364 | 0.902 | inactive
YES1 | 0.726 | 1 | inactive
TSSK1B | -0.358 | 0.902 | inactive
EEF2K | -0.364 | 0.902 | inactive
SRP72 | -0.86 | 0.857 | inactive
WNK3 | 0.726 | 1 | inactive
GRK2 | 0.54 | 0.983 | inactive
NEK9 | 0.605 | 0.989 | inactive
PIK3C2A | 0.0355 | 0.938 | inactive
CAMK1 | 0.639 | 0.992 | inactive
DGKI | 0.726 | 1 | inactive
PI4KA | 0.726 | 1 | inactive
MAP2K5 | 0.212 | 0.954 | inactive
DDR2 | 0.719 | 0.999 | inactive
ACVR2B | 0.695 | 0.997 | inactive
CDKL4 | -0.279 | 0.909 | inactive
UCK1 | 0.726 | 1 | inactive
POLR2B | -3.76 | 0.595 | active
FLT3 | 0.726 | 1 | inactive
WNK2 | 0.726 | 1 | inactive
